Experimental data as given in US20110189095A1, “CRKL TARGETING PEPTIDES” (The Board of Regents, of the University of Texas System, priority 2008, published 2011).

Each sequence was assayed on human DU145-derived prostate cancer xenografts (assay: In vivo phage display random peptide library selection in tumor-bearing mice). Settings: n = 75; after three rounds of in vivo selection, 24 hour circulation.
Design: species or system nude mice

“RECGRTVHRYPWGSPESCER (listed as Homo sapiens) [Peptide 36]” and “GNCMGLQVSELFMGPYKCRQ (listed as Homo sapiens) [Peptide 12]” are the same in Frequency: 2.8% for the first, 2.8% for the second.

Compared with “DRCVLVRPEFGRGDARLCHS (listed as Homo sapiens) [Peptide 38]”, “RGCTEAAGLVIGITTHQCGN (listed as Homo sapiens) [Peptide 24]” is higher in Frequency: 2.8% for the first, 4.1% for the second.

Compared with “VFCCGSYCGGVEMLASRCGH (listed as Homo sapiens) [Peptide 25]”, “GTCPRQFFHMQEFWPSDCSR (listed as Homo sapiens) [Peptide 43]” is higher in Frequency: 2.8% for the first, 4.1% for the second.

Going from “IGCNHPSPLGSTVVPTYCFK (listed as Homo sapiens) [Peptide 46]” to “DACSRFLGERVDATAAGCSR (listed as Homo sapiens) [Peptide 40]”, the Frequency falls from 4.1% to 2.8%.

Compared with “LGCMASMLREFEGATHACTQ (listed as Homo sapiens) [Peptide 37]”, “YRCTLNSPFFWEDMTHECHA (listed as Homo sapiens) [Peptide 6]” is higher in Frequency: 10.7% for the first, 14.7% for the second.

“EGCSDIMNTAAERVTGDCSY (listed as Homo sapiens) [Peptide 28]” showed a Frequency of 2.8%.
